These are yes or no findings as the source states them, for the method shown. Binding seen in cells or lysates may run through a third protein. Here binding means that the protein was enriched with, or labelled near, the bait; the list need not be complete.
Biological target: GFP-eIF4E3_A (human) (UniProt Q8N5X7)
Assay: affinity purification with mass spectrometry; GFP-Trap_A beads on lysates of transiently transfected HEK293 cells producing GFP-eIF4E3_A or GFP-eIF4E3_B; 12 % SDS-PAGE, Coomassie-stained bands or gel areas excised, MALDI TOF/TOF

Chains of the proteins cited; added tags and fusions are not shown.
UniProt Q8N5X7: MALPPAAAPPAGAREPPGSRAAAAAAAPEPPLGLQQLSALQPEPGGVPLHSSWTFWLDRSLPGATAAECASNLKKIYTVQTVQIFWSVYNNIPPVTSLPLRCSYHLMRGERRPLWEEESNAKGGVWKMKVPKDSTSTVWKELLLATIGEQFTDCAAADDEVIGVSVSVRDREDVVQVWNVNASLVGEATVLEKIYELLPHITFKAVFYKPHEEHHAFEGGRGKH
UniProt O43432: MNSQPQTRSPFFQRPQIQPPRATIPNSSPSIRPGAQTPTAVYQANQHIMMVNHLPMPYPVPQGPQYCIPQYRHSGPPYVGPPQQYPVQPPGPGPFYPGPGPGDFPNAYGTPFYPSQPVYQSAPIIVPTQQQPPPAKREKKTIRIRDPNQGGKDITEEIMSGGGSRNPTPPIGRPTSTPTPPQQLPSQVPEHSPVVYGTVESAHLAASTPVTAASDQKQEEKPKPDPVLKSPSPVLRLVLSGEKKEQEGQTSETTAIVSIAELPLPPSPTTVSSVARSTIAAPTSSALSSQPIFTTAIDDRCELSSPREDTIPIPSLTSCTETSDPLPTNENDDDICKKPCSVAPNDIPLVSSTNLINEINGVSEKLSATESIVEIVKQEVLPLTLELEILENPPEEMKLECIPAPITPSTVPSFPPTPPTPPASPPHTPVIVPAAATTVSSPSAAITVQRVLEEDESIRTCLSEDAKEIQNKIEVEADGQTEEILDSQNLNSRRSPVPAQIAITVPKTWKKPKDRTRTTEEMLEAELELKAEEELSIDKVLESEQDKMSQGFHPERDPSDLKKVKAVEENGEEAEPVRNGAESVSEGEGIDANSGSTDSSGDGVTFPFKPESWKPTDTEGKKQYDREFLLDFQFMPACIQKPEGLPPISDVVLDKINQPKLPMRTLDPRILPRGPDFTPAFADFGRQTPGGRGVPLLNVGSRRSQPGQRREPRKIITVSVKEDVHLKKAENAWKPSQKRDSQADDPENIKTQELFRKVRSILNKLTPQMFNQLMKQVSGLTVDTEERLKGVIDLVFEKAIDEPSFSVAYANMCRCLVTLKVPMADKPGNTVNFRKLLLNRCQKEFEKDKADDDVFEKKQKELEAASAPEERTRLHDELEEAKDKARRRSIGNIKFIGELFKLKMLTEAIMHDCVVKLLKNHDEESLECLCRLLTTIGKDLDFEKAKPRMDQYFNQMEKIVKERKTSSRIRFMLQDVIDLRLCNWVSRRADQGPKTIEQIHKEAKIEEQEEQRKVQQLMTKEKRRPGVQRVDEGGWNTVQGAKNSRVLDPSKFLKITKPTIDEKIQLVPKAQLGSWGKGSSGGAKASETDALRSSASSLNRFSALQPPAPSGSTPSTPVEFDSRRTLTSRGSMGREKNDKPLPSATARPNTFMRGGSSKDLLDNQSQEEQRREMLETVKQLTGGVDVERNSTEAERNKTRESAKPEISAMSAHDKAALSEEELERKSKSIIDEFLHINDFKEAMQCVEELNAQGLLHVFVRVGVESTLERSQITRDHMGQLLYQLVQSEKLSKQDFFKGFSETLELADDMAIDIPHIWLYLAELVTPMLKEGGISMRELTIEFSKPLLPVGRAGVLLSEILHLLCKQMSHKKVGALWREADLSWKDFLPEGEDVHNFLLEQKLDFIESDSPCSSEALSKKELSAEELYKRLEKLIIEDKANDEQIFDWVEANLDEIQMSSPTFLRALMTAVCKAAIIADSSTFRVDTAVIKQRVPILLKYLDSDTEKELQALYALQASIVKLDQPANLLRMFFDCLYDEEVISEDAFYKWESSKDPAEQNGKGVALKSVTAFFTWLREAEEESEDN

## eIF4G protein isoform 3 (eIF4G3) (from UniProt O43432 1-1585)
  binding: binds
